Experimental data: PubChem BioAssay AID1053208 (Peter MacCallum Cancer Centre, 2014)

- Purpose: 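Synthetic lethal interactions between gene loss and doxorubicin in osteosarcoma cells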 (primary screen)
- System: mouse osteosarcoma cells, early-passage culture from an engineered mouse model of fibroblastic bone tumour
- Reagent: siRNA pool against mouse genes, 40 nM
- Duration: about 120 h (48 h before drug, then 72 h with drug)
- Treatment: doxorubicin 100 nM for 72 h, roughly 30-40% inhibitory dose
- Measurement: 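Luminescent ATP signal taken as viability with or without 100 nM doxorubicin for 72 h; mean of two wells set against non-targeting siRNA and turned into robust z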
- Reading the numbers: viability z-score with doxorubicin: higher = more viable cells under doxorubicin; viability z-score without drug: higher = more viable cells with knock-down alone
- Hit rule: 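Called active if knock-down leaves viability unchanged without drug (z within -2 to 2) but lowers it with doxorubicin (z at or under -2)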
This is an unselected part of about 17,000 reagents. In the full data, 788 (4.7%) got an active call. 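Calls rest on z-score classes alone; an extra cut-off of viability at most 70% of control was not applied to them.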 A number with no mark means an inactive call. Further read-outs or replicates are left out here.

target	combined z-score class	viability z-score with doxorubicin	viability z-score without drug
Tmem106b (transmembrane protein 106B)	no change with or without drug	1.69	0.34
Pcif1 (phosphorylated CTD interacting factor 1)	no change with or without drug	1.57	0.84
Or5w15 (olfactory receptor family 5 subfamily W member 15)	no change with or without drug	-0.22	-0.51
Vamp8 (vesicle-associated membrane protein 8)	no change with or without drug	0.22	0.51
Mif4gd (MIF4G domain containing)	no change with or without drug	-1.12	1.18
Zfp467 (zinc finger protein 467)	no change with or without drug	-1.12	0.84
B4galt4	no change with or without drug	1.01	0.51

Looked up above.
Entry for Tmem106b (transmembrane protein 106B) in “viability z-score with doxorubicin”: 1.69
For “combined z-score class”, Zfp467 (zinc finger protein 467) has no change with or without drug
Value for Mif4gd (MIF4G domain containing) in “viability z-score with doxorubicin”: -1.12

Additional records follow.
target	combined z-score class	viability z-score with doxorubicin	viability z-score without drug
Or6c213 (olfactory receptor family 6 subfamily C member 213)	no change with or without drug	0.45	-0.84
Rpl23a (ribosomal protein L23A)	low cell count with and without drug	-5.85	-9.11
Nt5c3 (5'-nucleotidase, cytosolic III)	no change with or without drug	0.79	-0.17
Hmx3 (H6 homeobox 3)	no change with or without drug	0.34	0.84
Or10h1b (olfactory receptor family 10 subfamily H member 1B)	no change with or without drug	0.22	0.67
Tnfrsf26 (tumor necrosis factor receptor superfamily, member 26)	no change with or without drug	-0.34	-0.17
Lmcd1 (LIM and cysteine-rich domains 1)	no change with or without drug	1.24	0.84
Cyp4f14 (cytochrome P450, family 4, subfamily f, polypeptide 14)	no change with or without drug	0.22	-0.67
Rnd2 (Rho family GTPase 2)	no change with or without drug	-1.35	-0.84
Macroh2a3 (macroH2A.3 histone)	no change with or without drug	1.57	0.17
Pira1 (paired-Ig-like receptor A1)	no change with or without drug	1.12	1.35
Tbcc (tubulin-specific chaperone C)	no change with or without drug	-0.45	0.51
Slfnl1 (schlafen like 1)	no change with or without drug	0.67	0.67
